Measured values: patent US20150216891A1
No constants are given. Whether binding was seen depends on the method and setting. Binding seen in cells or lysates may run through a third protein. Some results given as binding are weak or reduced against the parent protein; the word gives no strength.

Chains of the proteins cited; added tags and fusions are not shown. Lines headed by an entry give the natural chain unless they say otherwise; changes in a name come on top.
UniProt P04792: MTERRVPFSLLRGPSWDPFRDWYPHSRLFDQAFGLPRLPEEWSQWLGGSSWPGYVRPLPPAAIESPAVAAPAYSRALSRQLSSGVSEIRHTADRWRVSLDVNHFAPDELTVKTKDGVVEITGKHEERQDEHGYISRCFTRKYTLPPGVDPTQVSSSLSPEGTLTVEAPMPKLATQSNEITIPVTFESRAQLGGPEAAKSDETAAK

Assays:
[1] = target: T1, Translationally-Controlled Tumor Protein (TCTP) (human) (UniProt P13693); test: co-immunoprecipitation with rabbit anti-TCTP antibody (rabbit IgG as control), LNCaP-Mock and LNCaP-Hsp27 lysates
T1 sequence: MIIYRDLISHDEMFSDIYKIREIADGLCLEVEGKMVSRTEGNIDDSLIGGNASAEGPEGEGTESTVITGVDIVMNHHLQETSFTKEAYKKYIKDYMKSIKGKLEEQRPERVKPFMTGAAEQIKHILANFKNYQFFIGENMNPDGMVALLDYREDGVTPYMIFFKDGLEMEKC

[2] = target: T1, Translationally-Controlled Tumor Protein (TCTP) (human); test: co-immunoprecipitation with TCTP from LNCaP cells transfected with HA-tagged phospho-mutants

Q: “Heat Shock Protein 27 (Hsp27) (from UniProt P04792 1-205)” was tested. Which binding [1] did it give?
A: Its binding is “binds”.

Q: “Hsp27 3A phosphorylation mutant (Ser 15, 78 and 82 replaced by alanines), HA-tagged (from UniProt P04792 1-205)” was tested. Which binding [2] did it give?
A: Its binding is “binds”.
